Our source for the binding values is publication PMC10775985.

Chains of the proteins cited; added tags and fusions are not shown.
UniProt P05434: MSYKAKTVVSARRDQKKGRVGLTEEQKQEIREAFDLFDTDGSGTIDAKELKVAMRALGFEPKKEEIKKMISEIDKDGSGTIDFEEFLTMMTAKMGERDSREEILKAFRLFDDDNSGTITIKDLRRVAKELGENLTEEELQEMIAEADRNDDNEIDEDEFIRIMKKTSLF

The assay deals with CrCen-6His (Chlamydomonas reinhardtii centrin) (Chlamydomonas reinhardtii) (UniProt P05434). As to the kind of experiment: light microscopy of droplets in purified protein solutions; self-assembly into droplets; concentrated recombinant centrin (100-200 μM), 2 mM CaCl2 added, then 10 mM EDTA; 50 mM BisTris pH 7.1, 37°C; both purified.

These are yes or no findings as the source states them, for the method shown.

With “CrCen-6His (Chlamydomonas reinhardtii centrin) (from UniProt P05434 1-169)”, the binding result is “no binding (condition: with 10 mM EDTA)”.
